Data published in publication PMC11758950.
No constants are given. Whether binding was seen depends on the method and setting. Binding seen in cells or lysates may run through a third protein. Some binding calls cover weakened binding; strength is not graded here. Where a sequence is shown, tags or fusion partners need not be part of it.

B1: ELFN1-Venus (protein, UniProt Q8C8T7 26-828)
chain: QGDCWLIEGDKGFVWLAICSQNQPPYEAIPQQINNTIVDLRLNENRIRSVQYASLSRFGNLTYLNLTKNEIGYIEDGAFSGQFNLQVLQLGYNRLRNLTEGMLRGLSKLEYLYLQANLIEVVMASAFWECPNIVNIDLSMNRIQQLGSGTFAGLTKLSVCEIYSNPFYCSCELLGFLRWLAAFTNATQTHDRVQCESPPVYAGYFLLGQGRHGHQRSILSKLQSVCTEGSYTAEVLGPPRPVPGRSQPGHSPPPPPPEPSDMPCADDECFSGDGTTPLVILTTLVPQTEARPSMKVKQLTQNSATIMVQLPSPFNRMYTLEQYNNSKSFTVSKLTQPQEEIRLTNLYTLTNYTYCVVSTSSGTHHNHTCLTICLPKPPSPPGPVPSPSTATHYIMTILGCLFGMVLVLGAVYYCLRKRRRQEEKHKKAVAAAAGSLKKTIIELKYGPEIEAPGLAPLTQGPLLGPEAVTRIPYLPAATSDVEQYKLVESSETPKATKGNYIEVRTGEPQERRGCELSRPGEPQSSVAEISTIAKEVDRVNQIINNCIDALKSESTSFQGAKSGAVSAAEPQLVLLSEPLASKHSFLSPVYKDAFGHGGLQRHHSVEAAPGPPRASTSSSGSARSPRTFRAEATGTHKAPATETKYIEKSSPVPETILTVTPAATVLRAEADKSRQYGEHRHSYPGSHPAEPPAPPPPPPTHEGLGGRKASILEPLTRPRPRDLVYSQLSPQYHNLSYSSSPEYTCRASPSIWERLRLSRRRHKDDAEFMAAGHALRKKVQFAKDEDLHDILDYWKGVSAQHKS
B2: ELFN1-myc (protein, UniProt Q8C8T7 26-828)
chain: B1 chain

Columns and labels:
[1] = biological target: T1, ELFN1-nLuc (mouse) (UniProt Q8C8T7); assay: FRET or BRET; BRET disruption (competition) in live HEK 293 T/17 cells: stable levels of ELFN1-nLuc and ELFN1-Venus below saturation, co-expression of pcDNA3.1, ELFN1-myc or ELFN1ΔLRR-myc
T1 sequence: B1 chain

[2] = biological target: T1, ELFN1-nLuc (mouse); assay: FRET or BRET; donor/acceptor titration BRET in live transfected HEK 293 T/17 cells; constant nLuc donor construct (5 ng), increasing Venus acceptor construct (0-2.4 ug); Nano-Glo reagent 0.1%; ratio 535 nm / 460 nm
[3] = biological target: T2, ELFN1-Venus (mouse) (UniProt Q8C8T7); assay: co-IP; co-transfected HEK 293 T/17 cells (2.5 ug of each construct), 1% Triton-X lysis buffer; Protein G Sepharose beads with mouse GFP antibody, 1 h at 4 C, washed 3 times; blot with myc antibody
T2 sequence: B1 chain

[4] = biological target: T3, EctoELFN1-Fc (mouse) (UniProt Q8C8T7); assay: pull-down; Fc or EctoELFN1-Fc secreted into OPTI-MEM (48 h) incubated with Protein G Sepharose beads and lysate of ELFN1-myc or ELFN2-myc transfected HEK 293 T/17 cells in 1% Triton-X lysis buffer, 1 h at 4 C, washed 3 times; blot with myc antibody
T3 sequence: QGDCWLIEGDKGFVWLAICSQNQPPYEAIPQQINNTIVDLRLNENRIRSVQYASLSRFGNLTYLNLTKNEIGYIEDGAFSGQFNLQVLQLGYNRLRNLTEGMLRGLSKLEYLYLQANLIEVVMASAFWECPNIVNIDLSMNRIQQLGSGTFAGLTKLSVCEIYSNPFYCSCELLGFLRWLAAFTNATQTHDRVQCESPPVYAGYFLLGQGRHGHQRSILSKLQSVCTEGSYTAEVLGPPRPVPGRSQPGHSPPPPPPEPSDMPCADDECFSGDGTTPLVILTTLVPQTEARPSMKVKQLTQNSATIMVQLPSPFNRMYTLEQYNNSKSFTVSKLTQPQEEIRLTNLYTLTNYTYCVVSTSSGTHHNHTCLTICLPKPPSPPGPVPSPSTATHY

Binder | binding [1] | binding [2] | binding [3] | binding [4]
B1 | binds | binds | – | –
B2 | – | – | binds | binds
